Source: ChEMBL document CHEMBL3988442, “University of Dundee, Small-Polar-MMV Screening Library” (2021).

The chains behind the UniProt entries cited, without tags or fusion partners. Residues count along the entry.
UniProt Q4DA54, 1-478: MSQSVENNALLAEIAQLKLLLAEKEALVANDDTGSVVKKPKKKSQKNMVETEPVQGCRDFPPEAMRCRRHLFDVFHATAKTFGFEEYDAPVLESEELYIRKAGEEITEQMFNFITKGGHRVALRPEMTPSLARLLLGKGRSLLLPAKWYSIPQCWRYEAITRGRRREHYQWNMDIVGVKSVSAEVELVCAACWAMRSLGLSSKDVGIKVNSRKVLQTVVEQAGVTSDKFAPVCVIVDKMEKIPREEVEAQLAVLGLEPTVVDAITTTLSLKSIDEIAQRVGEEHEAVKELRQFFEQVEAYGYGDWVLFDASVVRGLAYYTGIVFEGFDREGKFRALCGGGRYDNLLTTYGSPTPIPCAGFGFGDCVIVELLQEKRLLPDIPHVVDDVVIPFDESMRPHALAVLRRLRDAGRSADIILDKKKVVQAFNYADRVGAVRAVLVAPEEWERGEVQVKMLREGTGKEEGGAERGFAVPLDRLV
UniProt P9WNZ1, whole entry: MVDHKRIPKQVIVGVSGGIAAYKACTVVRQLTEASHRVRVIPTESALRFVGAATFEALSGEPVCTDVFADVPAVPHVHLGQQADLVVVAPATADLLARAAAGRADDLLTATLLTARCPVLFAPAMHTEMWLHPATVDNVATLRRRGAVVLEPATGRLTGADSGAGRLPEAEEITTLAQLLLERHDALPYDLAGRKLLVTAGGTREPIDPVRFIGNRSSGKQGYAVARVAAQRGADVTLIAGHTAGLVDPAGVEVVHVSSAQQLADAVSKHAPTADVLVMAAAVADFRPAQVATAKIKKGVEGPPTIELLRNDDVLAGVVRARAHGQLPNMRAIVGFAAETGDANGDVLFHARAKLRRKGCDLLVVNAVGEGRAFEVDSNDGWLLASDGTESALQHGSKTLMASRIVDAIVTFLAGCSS
UniProt P9WPC5, whole entry: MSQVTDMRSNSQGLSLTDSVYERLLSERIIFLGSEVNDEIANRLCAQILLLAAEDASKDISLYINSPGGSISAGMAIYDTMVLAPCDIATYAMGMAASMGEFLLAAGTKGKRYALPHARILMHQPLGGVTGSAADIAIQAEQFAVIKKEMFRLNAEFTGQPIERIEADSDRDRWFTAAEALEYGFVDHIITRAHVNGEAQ
UniProt P9WPC3, whole entry partner: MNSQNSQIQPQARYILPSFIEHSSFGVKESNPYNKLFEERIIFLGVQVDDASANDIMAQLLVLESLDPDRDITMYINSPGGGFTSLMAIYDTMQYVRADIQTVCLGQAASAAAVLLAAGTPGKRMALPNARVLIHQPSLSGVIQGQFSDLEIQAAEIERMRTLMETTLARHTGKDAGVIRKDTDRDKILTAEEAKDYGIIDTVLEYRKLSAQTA
UniProt Q8IDJ8, 1-583: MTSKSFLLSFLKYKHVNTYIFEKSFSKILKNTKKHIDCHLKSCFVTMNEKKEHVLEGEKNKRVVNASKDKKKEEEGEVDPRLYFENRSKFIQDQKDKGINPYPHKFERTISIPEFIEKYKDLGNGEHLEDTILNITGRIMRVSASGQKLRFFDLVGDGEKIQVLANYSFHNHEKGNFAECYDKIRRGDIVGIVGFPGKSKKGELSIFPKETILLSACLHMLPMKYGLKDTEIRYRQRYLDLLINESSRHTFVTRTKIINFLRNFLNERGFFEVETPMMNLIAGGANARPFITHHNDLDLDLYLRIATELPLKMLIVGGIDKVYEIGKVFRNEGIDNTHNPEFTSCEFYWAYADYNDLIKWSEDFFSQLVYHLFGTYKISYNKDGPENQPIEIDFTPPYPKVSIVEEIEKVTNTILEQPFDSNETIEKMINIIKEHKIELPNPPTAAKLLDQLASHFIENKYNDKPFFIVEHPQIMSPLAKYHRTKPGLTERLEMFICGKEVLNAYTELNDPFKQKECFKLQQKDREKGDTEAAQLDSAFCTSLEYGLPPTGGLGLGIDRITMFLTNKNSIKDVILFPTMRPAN

Leishmania in macrophages: 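Cell assay of Leishmania donovani living inside macrophages; the read-out is not stated. Compounds at 30 µM. The record gives no direction; compounds that gave an IC50 in retests scored well above the rest, so higher reads as stronger inhibition. Size under these conditions: about 69,000 compounds, about 1,000 of them at 50% or above in at least one test.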
TcHisRS: 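Histidine-tRNA ligase, Trypanosoma cruzi CL Brener (UniProt Q4DA54). Enzyme assay of histidyl-tRNA synthetase; the read-out is not stated. Concentration: 30 µM. The record gives no direction; compounds that gave an IC50 in retests scored well above the rest, so higher reads as stronger inhibition. Size under these conditions: about 69,000 compounds, about 31 of them at 50% or above in at least one test.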
CoaBC: 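Coenzyme A biosynthesis protein CoaBC, Mycobacterium tuberculosis (UniProt P9WNZ1). Enzyme assay of CoaBC with a phosphate dye (Biomol Green) read at 650 nm. Compounds at 30 µM. Higher reads as stronger inhibition, judged from the few compounds that gave an IC50. Most strong results did not repeat in a second test. Size under these conditions: about 67,000 compounds, about 40 of them at 50% or above in at least one test.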
ClpP1P2: 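Protease assay of ClpP1P2, read by the AMC dye that it sets free. Target: ClpP1P2, Mycobacterium tuberculosis (UniProt P9WPC5 and UniProt P9WPC3). Concentration: 50 µM. Direction is inferred from only a few compounds that gave an IC50; most scored high, so higher reads as stronger inhibition. Most other retested compounds had strongly negative values. Of about 69,000 compounds tested this way, about 10 (0.015%) reached 50% or more in at least one test.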
PfKRS1: 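Lysine-tRNA ligase, Plasmodium falciparum 3D7 (UniProt Q8IDJ8). Enzyme assay of the cytosolic lysyl-tRNA synthetase in 384-well plates, read by luminescence. Compounds at 30 µM. Direction is inferred from only a few compounds that gave an IC50; most scored high, so higher reads as stronger inhibition. Size under these conditions: about 69,000 compounds, about 49 of them at 50% or above in at least one test.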

Values are the deposited “Percent Effect”, in %. The controls that fix the scale are not given in the record; negative values are as filed. This is an unselected part of the compounds tested. Two or more numbers in one place are separate tests of the same structure; such repeats can differ widely. A dash means the value is not listed here; it may have been measured.

structure	Leishmania in macrophages	TcHisRS	CoaBC	ClpP1P2	PfKRS1
CCOc1ccc(Cl)c(C(=O)N2CCN(c3cnccn3)CC2)n1	-4.831	-2.29	-0.7229	9.51	-0.08115
[H][C@@]12CN(C(C)=O)C[C@]1([H])C(=O)N(CC1CC1)C2	15.71	-	-	-	-
O=C(NCc1ccccc1Cn1ccnc1)N1CCSCC1	12.28	4.124	1.222	3.245	2.53
Cc1nn(C)c2nc(-c3ccccn3)nc(NCCC3CCCN3C)c12 (centres undefined)	-1.821	-0.4926	-24.84	-0.9029	8.024
O=C(c1ccccc1)C1CCN(C(=O)CC2COCCN2)CC1 (centres undefined)	7.387	4.762	-3.38	5.922	0.5717
COc1cc(C)c(NC(=O)CCn2cccc2)cc1OC	9.902	4.972	9.153	-3.734	-1.709
Nc1nc(CN2CCCC(Cn3cncn3)C2)nc2ccccc12 (centres undefined)	22.45	0.3831	-2.698	0.409	0.2242
CC(CN1CCC(c2ccccc2)CC1)n1cnc2ccccc21 (centres undefined)	-6.665	7.216	7.547	-8.173	0.7494
CCn1cnnc1CNC(=O)c1cc(F)ccc1OC	17.64	2.254	6.234	2.663	0.5584
COCCC(=O)N1CC2(CCN(Cc3ccccc3Cl)CC2)C1	-	10.2	0.3708	2.653	2.951
CC(C)O[C@H]1CN(C(=O)CCN2CCCCO2)C[C@@H]1O	-33.45	1.19	-3.071	2.845	-2.628
COCCN1CCC2(CC1)CC(OCC1CC1)c1ccc(C)cc12 (centres undefined)	2.326 and 15.63	-2.151	-5.684	8.797	-5.966
CN(C)S(=O)(=O)N1CCC2(CCCN(Cc3ccc(F)cc3)C2=O)C1 (centres undefined)	2.664	-0.8264	7.527	-9.885	-0.8118
CCC(C)Oc1cc(C(=O)Nc2nnc(C(C)C)[nH]2)ccn1 (centres undefined)	15.17	4.598	2.583	-10.51	2.278
CN(Cc1cccc(C#N)c1)C(=O)C1CC(c2cccc(F)c2)=NO1 (centres undefined)	-6.375	0.431	2.155	-12.48	2.657
CC(C)(C)c1noc(CCCC(=O)N2CCCC(c3ccn[nH]3)C2)n1 (centres undefined)	-44.28	1.538	-2.484	-8.883	2.519
Cc1[nH]c2c(F)cccc2c1CC(=O)N1CCC(NS(C)(=O)=O)CC1	4.551	-12.56	5.093	-15	7.079
Cc1nonc1C1CCCN1Cc1ccc(C(=O)Nc2nccs2)cc1 (centres undefined)	6.392	1.657	22.33 and 10.58	-8.247	3.257
NC(c1ccc(F)cc1)c1cccs1 (centres undefined)	6.777	9.091	-	10.23	0.3495
Cc1cnn(CC2CN(Cc3cccc(C(N)=O)c3)CCO2)c1 (centres undefined)	-0.6711	8.046	2.71	-8.309	2.216
O=C(O)C(F)(F)F.[H][C@@]12C[C@H](C(=O)Nc3ccccc3)[C@@]([H])(CN(CCC(C)C)C1)O2	24.33	-	-	-	-
O=C1N(c2ccc(Cl)cc2)Cc2nc(=O)[nH]n21	9.728	2.273	4.925	7.623	0.1358
Cc1noc(CCCC(=O)NCC(c2ccco2)N2CCCC2)n1 (centres undefined)	31.68	4.819	1.98	-6.277	-2.4
CC(=O)N1CC(C(=O)Nc2cccc(OC(F)F)c2)C1	11.43 and 10.37	4.124	1.48	2.371	3.429
CCOc1cc(C(=O)NS(=O)(=O)c2cccc(C#N)c2)ccc1OC	38.35	3.468	3.448	-29.09	0.547
CC(C)C(C(=O)N1CCCN(Cc2cscn2)CC1)n1cncn1 (centres undefined)	-16.99	1.345	6.091	-4.625	3.159
COc1ccc(C[C@H]2CN(C(=O)c3ccc(C)nc3)CC[C@@H]2OC)cc1	-	9.709	3.732	0.4438	-0.138
O=C(O)C(F)(F)F.c1ccc(CN2Cc3nccn3CC(Cn3cccn3)C2)nc1 (centres undefined)	12.38	-	-	-	-
CC(C)Cn1c2c(ccc1=O)CC(N)CC2 (centres undefined)	-2.883	7.767	2.799	-7.227	3.212
CC(=O)N1CCC2(C1)c1ccccc1S(=O)(=O)N2C (centres undefined)	11.01	2.222	2.927	-1.601	1.057
O=C1c2cccnc2OC(CN2CCOCC2)CN1Cc1cccs1 (centres undefined)	12.06	6.936	2.331	-7.922	4.52
CNC(=O)N1C[C@H]2C[C@H](C(=O)Nc3ccccc3)[C@@H](C1)O2	-	2.732	1.416	0.9691	2.802
CCOC(=O)C1CCN(Cc2csc(C(C)(C)C)n2)CC1	14.9	5.263	-16.71	-8.312	6.838
Cc1ccsc1C(=O)NC1CCS(=O)(=O)c2ccccc21 (centres undefined)	2.139	5.063	3.606	1.385	1.188
CC(C)C(=O)N1CC2(CCN(CC(C)(C)C)CC2)C1	-	5.825	-10.69	9.63	0.3671
Cc1oncc1C(=O)N1CC[C@H]2C[C@H](c3ccncn3)O[C@@H]2C1	-	0.8264	-3.782	11.79	-0.2216
O=C(NCC1CC1)C1=NOC2(CCN(S(=O)(=O)Cc3ccccc3)C2)C1 (centres undefined)	-4.807	10.74	-2.101	-5.67	-0.1749
CC(C)CN1CCCC2(CCN(c3ccccn3)C2)C1.O=C(O)C(F)(F)F (centres undefined)	30.67	-	-	-	-
CCN1CCC2(CC1)OCCN2C(=O)c1ccc(OC)c(Cl)c1.Cl	22.75	-	-	-	-
Cc1noc(C)c1CCCNC(=O)Nc1ccc2c(c1)CC(=O)N2	19.62	-1.818	-4.136	-0.04403	5.475
CCc1noc(C(C)N(C)CC(=O)Nc2ccc(Br)cc2C)n1 (centres undefined)	1.194	4.294	5.25	4.485	-0.1901
CCN1CCCC1CNC(=O)CCSc1ccc2c(c1)OCCO2 (centres undefined)	19.69	-4.386	5.302	-12.2	0.0118
CC(=O)N1CCC[C@H]1C(=O)NCCCN(C(C)C)S(C)(=O)=O	2.858	-0.431	0.8872	-3.977	5.627
COCCNC(=O)[C@H]1C[C@@](CC(C)C)(C(=O)O)N(C)[C@H]1c1cccnc1	15.84	11.6	9.611	0.3389	1.931
O=C(Cc1c(F)cccc1Cl)NC1CCCCNC1=O (centres undefined)	13.12	8.036	2.39	-12.78	7.886
Cc1cc(C)c(CNC(=O)CCC2CCCO2)c(=O)[nH]1 (centres undefined)	17.89	7.059	7.673	-15.72	0.8005
[H][C@]12CC[C@]([H])(CN(Cc3ccccc3C#N)C1)N(CC(=O)N(C)C)C2=O	7.713	-	-	-	-
O=C(C1CCC2(CCN(c3nncs3)CC2)CO1)N1CCCC1 (centres undefined)	-	2.299	0.611	13.33	2.806
O=C(Cn1cc(Cl)cn1)N1CCCC(c2ccn[nH]2)C1 (centres undefined)	32.28	-0.7605	1.112	-18.67	0.623
Cc1ncc(C)c(N2CCCC(CO)(Cc3cccc(Cl)c3)C2)n1 (centres undefined)	20.29	7.531	10.91	-9.813	-1.094
O=C(c1sccc1C1CC1)N1CCN(Cc2cscn2)CC1	-5.885	0.2915	6.005	-18.4	0.7857
CC(c1ccc(F)c(F)c1)N(C)CCS(=O)(=O)CCC(N)=O (centres undefined)	34.92	2.299	-5.6	6.823	3.567
CC(NC(=O)C1=NN(C)C(=O)CC1)c1ccccc1Cl (centres undefined)	5.92	4.294	4.994	-0.8228	7.437
Cc1ncnc2c1CCN(C(=O)CN(C)C)CC2.O=C(O)C(F)(F)F	6.057 and 3.456	-	-	-	-
CCC(C)N(Cc1c[nH]c(C)n1)Cc1ccccc1Cl (centres undefined)	27.37	0.5435	-5.785	-6.623	2.749
COc1cc(C)ccc1OCCC(=O)N1CCCC1Cn1cccn1 (centres undefined)	-13.74	1.515	6.177	0.4692	4.692
Cc1noc([C@@H]2C[C@H](NC(=O)Nc3cccc(F)c3)CN2C)n1	-7.451	-1.087	13.02	-11.54	-2.724
O=C(c1ccc[nH]1)N1CCc2c(cccc2S(=O)(=O)N2CCOCC2)C1	-11.04	10	5.455	0.3255	3.566
O=C(O)C(F)(F)F.O=S1(=O)c2ccccc2C2(CCN(Cc3ccccc3)C2)N1CC1CC1 (centres undefined)	23.18	-	-	-	-
Cn1nnc2c1C(COCC1CC1)CN(C(=O)[C@H]1CCCO1)C2 (some centres undefined)	6.968	9.816	-	7.402	2.934
Cc1nc[nH]c1CN1CCC(CNC(=O)c2cccc3cnccc23)C1 (centres undefined)	25.79	2.273	0.2141	5.999	1.381
Cc1cc(C2CCCN2C(=O)COc2ccc(CC#N)cc2)no1 (centres undefined)	-24.19	4.598	6	4.793	-2.089